± gives the standard deviation of the averaged measurements. Some of the results follow.
What was measured:
Assay in all cases: NP40-soluble protein abundance relative to vehicle (solubility fold change) (ratio); higher = more soluble protein in presence of GTP
MNT = target: T1, MNT (UniProt Q99583)
T1 sequence (whole entry): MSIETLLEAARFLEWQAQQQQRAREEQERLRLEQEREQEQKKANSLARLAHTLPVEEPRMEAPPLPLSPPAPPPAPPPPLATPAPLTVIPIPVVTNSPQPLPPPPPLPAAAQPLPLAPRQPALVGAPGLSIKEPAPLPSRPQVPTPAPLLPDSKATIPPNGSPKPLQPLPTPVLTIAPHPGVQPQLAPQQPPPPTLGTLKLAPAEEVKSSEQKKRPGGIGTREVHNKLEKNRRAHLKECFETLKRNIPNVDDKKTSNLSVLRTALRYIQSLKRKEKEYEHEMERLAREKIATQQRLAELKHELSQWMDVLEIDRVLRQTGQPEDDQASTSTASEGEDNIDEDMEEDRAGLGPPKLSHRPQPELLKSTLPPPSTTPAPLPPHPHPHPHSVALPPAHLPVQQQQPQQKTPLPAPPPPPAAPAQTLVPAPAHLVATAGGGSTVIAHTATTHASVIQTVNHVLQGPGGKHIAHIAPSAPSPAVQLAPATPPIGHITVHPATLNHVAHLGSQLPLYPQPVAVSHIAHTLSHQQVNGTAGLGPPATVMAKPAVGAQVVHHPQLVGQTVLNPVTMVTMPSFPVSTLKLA
Procedure, shortened: (§1)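 In three independent experiments, Jurkat crude lysate made by Dounce homogenisation was treated for 10 min at room temperature and then 3 min at 37 °C with eight concentrations ranging from 0.1 to 10 mM. It was then solubilised with 0.8% NP40 plus benzonase for 60 min at 4 °C and ultracentrifuged. The supernatant was TMT-labelled for LC-MS/MS, and each value is the fold change against the detergent-processed vehicle for the same replicate, using vsn-normalised intensities.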

NACC1 = target: T2, NACC1 (UniProt Q96RE7)
T2 sequence (whole entry): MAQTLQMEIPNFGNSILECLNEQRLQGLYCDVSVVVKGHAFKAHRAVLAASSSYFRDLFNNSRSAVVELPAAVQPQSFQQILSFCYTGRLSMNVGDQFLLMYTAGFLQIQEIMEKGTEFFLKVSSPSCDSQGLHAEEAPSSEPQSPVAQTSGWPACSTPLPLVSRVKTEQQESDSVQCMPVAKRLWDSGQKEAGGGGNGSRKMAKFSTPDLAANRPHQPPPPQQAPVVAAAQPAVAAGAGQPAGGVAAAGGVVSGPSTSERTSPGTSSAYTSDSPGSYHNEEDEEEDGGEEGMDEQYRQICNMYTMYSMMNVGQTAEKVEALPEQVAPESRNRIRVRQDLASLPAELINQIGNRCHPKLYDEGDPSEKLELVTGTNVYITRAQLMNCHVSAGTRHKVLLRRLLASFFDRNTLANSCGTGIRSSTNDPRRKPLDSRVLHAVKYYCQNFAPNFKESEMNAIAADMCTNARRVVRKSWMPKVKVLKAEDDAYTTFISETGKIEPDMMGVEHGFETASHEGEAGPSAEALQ
Procedure, shortened: as §1

NOC4L = target: T3, NOC4L (UniProt Q9BVI4)
T3 sequence (whole entry): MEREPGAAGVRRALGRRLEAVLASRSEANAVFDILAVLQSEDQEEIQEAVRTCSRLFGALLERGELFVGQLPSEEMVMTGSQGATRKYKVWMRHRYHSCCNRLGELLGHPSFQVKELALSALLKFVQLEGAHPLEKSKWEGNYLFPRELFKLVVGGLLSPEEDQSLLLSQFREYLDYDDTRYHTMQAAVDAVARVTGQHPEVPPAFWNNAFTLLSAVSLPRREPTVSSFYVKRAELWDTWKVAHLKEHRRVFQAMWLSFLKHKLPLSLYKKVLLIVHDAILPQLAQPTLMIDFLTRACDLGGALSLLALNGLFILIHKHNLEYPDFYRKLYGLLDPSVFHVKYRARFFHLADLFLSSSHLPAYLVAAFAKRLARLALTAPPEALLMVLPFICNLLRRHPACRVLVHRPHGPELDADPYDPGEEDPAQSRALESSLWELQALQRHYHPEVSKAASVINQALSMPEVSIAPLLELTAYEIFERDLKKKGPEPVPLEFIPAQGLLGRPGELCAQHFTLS
Procedure, shortened: as §1

NUF2 = target: T4, NUF2 (UniProt Q9BZD4)
T4 sequence (whole entry): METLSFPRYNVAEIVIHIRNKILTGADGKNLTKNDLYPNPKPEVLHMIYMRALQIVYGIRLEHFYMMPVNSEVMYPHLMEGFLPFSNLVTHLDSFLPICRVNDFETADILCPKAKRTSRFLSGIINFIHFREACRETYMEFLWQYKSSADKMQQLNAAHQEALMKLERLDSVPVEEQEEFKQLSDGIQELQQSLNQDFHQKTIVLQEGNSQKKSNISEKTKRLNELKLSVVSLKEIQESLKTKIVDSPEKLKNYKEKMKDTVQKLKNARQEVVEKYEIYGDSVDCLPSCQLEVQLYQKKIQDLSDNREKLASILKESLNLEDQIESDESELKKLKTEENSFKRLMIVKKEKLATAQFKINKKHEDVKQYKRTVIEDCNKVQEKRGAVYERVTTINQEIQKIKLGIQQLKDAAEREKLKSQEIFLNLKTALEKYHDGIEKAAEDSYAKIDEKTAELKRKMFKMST
Procedure, shortened: as §1

RUFY1 = target: T5, RUFY1 (UniProt Q96T51)
T5 sequence (whole entry): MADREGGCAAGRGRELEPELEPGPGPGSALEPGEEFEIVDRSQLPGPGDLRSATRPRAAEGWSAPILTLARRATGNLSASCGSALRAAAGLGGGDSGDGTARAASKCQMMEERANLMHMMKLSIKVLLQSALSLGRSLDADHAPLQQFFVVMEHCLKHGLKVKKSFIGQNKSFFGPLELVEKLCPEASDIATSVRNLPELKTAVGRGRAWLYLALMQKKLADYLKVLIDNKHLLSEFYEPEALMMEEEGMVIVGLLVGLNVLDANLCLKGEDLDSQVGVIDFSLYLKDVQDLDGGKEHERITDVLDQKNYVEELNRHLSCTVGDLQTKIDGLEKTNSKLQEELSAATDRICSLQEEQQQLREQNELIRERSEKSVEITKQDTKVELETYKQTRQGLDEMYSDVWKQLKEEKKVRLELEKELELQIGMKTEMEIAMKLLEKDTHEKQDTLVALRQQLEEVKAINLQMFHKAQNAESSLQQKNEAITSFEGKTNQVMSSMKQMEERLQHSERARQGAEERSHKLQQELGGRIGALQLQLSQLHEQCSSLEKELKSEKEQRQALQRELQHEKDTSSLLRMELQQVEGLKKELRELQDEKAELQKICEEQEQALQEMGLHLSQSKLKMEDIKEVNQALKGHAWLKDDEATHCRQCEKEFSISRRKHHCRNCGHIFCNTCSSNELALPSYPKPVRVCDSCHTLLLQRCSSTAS
Procedure, shortened: as §1

STRBP = target: T6, STRBP (UniProt Q96SI9)
T6 sequence (whole entry): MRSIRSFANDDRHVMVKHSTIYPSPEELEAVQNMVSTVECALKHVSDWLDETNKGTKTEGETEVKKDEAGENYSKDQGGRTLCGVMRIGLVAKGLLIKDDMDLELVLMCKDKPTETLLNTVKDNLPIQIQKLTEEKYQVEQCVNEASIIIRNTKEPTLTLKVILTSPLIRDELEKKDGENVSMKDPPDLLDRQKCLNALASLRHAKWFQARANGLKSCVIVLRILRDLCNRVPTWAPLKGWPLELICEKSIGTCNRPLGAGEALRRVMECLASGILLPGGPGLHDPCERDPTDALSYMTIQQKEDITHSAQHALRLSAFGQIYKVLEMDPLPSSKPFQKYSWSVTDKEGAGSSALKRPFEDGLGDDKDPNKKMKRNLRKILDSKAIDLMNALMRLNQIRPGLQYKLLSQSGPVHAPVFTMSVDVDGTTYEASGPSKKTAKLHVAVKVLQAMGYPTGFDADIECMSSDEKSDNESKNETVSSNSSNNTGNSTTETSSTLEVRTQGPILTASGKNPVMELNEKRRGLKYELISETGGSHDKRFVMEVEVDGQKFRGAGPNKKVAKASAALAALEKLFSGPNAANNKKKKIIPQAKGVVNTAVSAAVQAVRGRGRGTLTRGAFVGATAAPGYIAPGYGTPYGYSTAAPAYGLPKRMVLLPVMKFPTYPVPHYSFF
Procedure, shortened: as §1

TP53RK = target: T7, TP53RK (UniProt Q96S44)
T7 sequence (whole entry): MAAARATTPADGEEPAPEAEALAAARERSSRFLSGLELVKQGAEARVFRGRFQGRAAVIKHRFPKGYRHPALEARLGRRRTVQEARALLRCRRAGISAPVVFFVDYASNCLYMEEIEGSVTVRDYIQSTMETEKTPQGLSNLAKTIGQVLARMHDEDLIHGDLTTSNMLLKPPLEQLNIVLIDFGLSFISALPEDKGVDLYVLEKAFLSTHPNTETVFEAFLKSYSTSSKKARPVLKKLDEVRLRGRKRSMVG
Procedure, shortened: as §1

Nc1nc2c(ncn2[C@@H]2O[C@H](COP(=O)(O)OP(=O)(O)OP(=O)(O)O)[C@@H](O)[C@H]2O)c(=O)[nH]1 [guanosine triphosphate]
NP40-soluble protein abundance (MNT; concentration: 4mM): 0.898 ± 0.019 | NP40-soluble protein abundance (MNT; concentration: 6mM): 0.875 ± 0.029 | NP40-soluble protein abundance (MNT; concentration: 8mM): 0.89 ± 0.052 | NP40-soluble protein abundance (MNT; concentration: 10mM): 0.915 ± 0.015 | NP40-soluble protein abundance (NACC1; concentration: 0.1mM): 0.948 ± 0.048 | NP40-soluble protein abundance (NACC1; concentration: 0.5mM): 0.964 ± 0.042 | NP40-soluble protein abundance (NACC1; concentration: 1mM): 0.945 ± 0.043 | NP40-soluble protein abundance (NACC1; concentration: 2mM): 0.966 ± 0.035 | NP40-soluble protein abundance (NACC1; concentration: 4mM): 0.907 ± 0.052 | NP40-soluble protein abundance (NACC1; concentration: 6mM): 0.939 ± 0.013 | NP40-soluble protein abundance (NACC1; concentration: 8mM): 0.909 ± 0.068 | NP40-soluble protein abundance (NACC1; concentration: 10mM): 0.933 ± 0.029 | NP40-soluble protein abundance (NOC4L; concentration: 0.1mM): 1.02 ± 0.06 | NP40-soluble protein abundance (NOC4L; concentration: 0.5mM): 0.976 ± 0.018 | NP40-soluble protein abundance (NOC4L; concentration: 1mM): 0.938 ± 0.057 | NP40-soluble protein abundance (NOC4L; concentration: 2mM): 1.02 ± 0.072 | NP40-soluble protein abundance (NOC4L; concentration: 4mM): 1 ± 0.024 | NP40-soluble protein abundance (NOC4L; concentration: 6mM): 0.976 ± 0.01 | NP40-soluble protein abundance (NOC4L; concentration: 8mM): 0.965 ± 0.071 | NP40-soluble protein abundance (NOC4L; concentration: 10mM): 0.927 ± 0.037 | NP40-soluble protein abundance (NUF2; concentration: 0.1mM): 0.933 ± 0.1 | NP40-soluble protein abundance (NUF2; concentration: 0.5mM): 0.914 ± 0.095 | NP40-soluble protein abundance (NUF2; concentration: 1mM): 0.97 ± 0.047 | NP40-soluble protein abundance (NUF2; concentration: 2mM): 0.919 ± 0.12 | NP40-soluble protein abundance (NUF2; concentration: 4mM): 0.954 ± 0.13 | NP40-soluble protein abundance (NUF2; concentration: 6mM): 0.977 ± 0.046 | NP40-soluble protein abundance (NUF2; concentration: 8mM): 0.963 ± 0.069 | NP40-soluble protein abundance (NUF2; concentration: 10mM): 1.01 ± 0.086 | NP40-soluble protein abundance (RUFY1; concentration: 0.1mM): 0.955 ± 0.035 | NP40-soluble protein abundance (RUFY1; concentration: 0.5mM): 0.98 ± 0.019 | NP40-soluble protein abundance (RUFY1; concentration: 1mM): 0.918 ± 0.05 | NP40-soluble protein abundance (RUFY1; concentration: 2mM): 0.918 ± 0.061 | NP40-soluble protein abundance (RUFY1; concentration: 4mM): 0.883 ± 0.067 | NP40-soluble protein abundance (RUFY1; concentration: 6mM): 0.905 ± 0.062 | NP40-soluble protein abundance (RUFY1; concentration: 8mM): 0.874 ± 0.054 | NP40-soluble protein abundance (RUFY1; concentration: 10mM): 0.9 ± 0.06 | NP40-soluble protein abundance (STRBP; concentration: 0.1mM): 1.04 ± 0.041 | NP40-soluble protein abundance (STRBP; concentration: 0.5mM): 1.09 ± 0.039 | NP40-soluble protein abundance (STRBP; concentration: 1mM): 1.08 ± 0.039 | NP40-soluble protein abundance (STRBP; concentration: 2mM): 1.14 ± 0.063 | NP40-soluble protein abundance (STRBP; concentration: 4mM): 1.17 ± 0.074 | NP40-soluble protein abundance (STRBP; concentration: 6mM): 1.2 ± 0.083 | NP40-soluble protein abundance (STRBP; concentration: 8mM): 1.19 ± 0.098 | NP40-soluble protein abundance (STRBP; concentration: 10mM): 1.19 ± 0.079 | NP40-soluble protein abundance (TP53RK; concentration: 0.1mM): 1.01 ± 0.099 | NP40-soluble protein abundance (TP53RK; concentration: 0.5mM): 0.924 ± 0.079 | NP40-soluble protein abundance (TP53RK; concentration: 1mM): 0.95 ± 0.086 | NP40-soluble protein abundance (TP53RK; concentration: 2mM): 0.893 ± 0.081 | NP40-soluble protein abundance (TP53RK; concentration: 4mM): 0.952 ± 0.073 | NP40-soluble protein abundance (TP53RK; concentration: 6mM): 0.868 ± 0.09 | NP40-soluble protein abundance (TP53RK; concentration: 8mM): 0.904 ± 0.097 | NP40-soluble protein abundance (TP53RK; concentration: 10mM): 0.832 ± 0.085
